Some of the results follow. The data scatter; read single values as rough.
How the values were obtained:
Settings in all cases: 10 µM
[1] = test system: Plasmodium vivax liver stage (primary human hepatocyte culture); experiment: hypnozoite quantity inhibition (% inhibition); higher = more active against hypnozoites
[2] = test system: Plasmodium vivax liver stage (primary human hepatocyte culture); experiment: schizont net growth area inhibition (% inhibition); higher = more active against liver schizonts
[3] = test system: primary human hepatocytes; experiment: hepatic nuclei reduction relative to DMSO (100 - % of negative control); higher = more toxic to hepatocytes
[4] = assay mode: Prophylactic (treated before or shortly after infection), fixed day 6 post-infection
[5] = assay mode: Radical Cure (treated from day 5 post-infection for 3 days), fixed day 8 post-infection

Cc1cc(Nc2ccc3ccccc3c2)n2ncnc2n1
hypnozoite quantity inhibition [1, 4]: -2
hypnozoite quantity inhibition [1, 5]: 29
schizont net growth area inhibition [2, 4]: 62.5
schizont net growth area inhibition [2, 5]: 11.9
hepatic nuclei reduction [3, 4]: -12%
hepatic nuclei reduction [3, 5]: -2%

CN(C)c1ccc(N2C(N)=NC(N)=NC2(C)C)cc1
hypnozoite quantity inhibition [1, 4]: 3.8
hypnozoite quantity inhibition [1, 5]: 37.4
schizont net growth area inhibition [2, 4]: -47.5
schizont net growth area inhibition [2, 5]: -26.8
hepatic nuclei reduction [3, 4]: -1%
hepatic nuclei reduction [3, 5]: -5%

CC(C)(C)n1nc(-c2ccccc2)c2c(N)ncnc21
hypnozoite quantity inhibition [1, 4]: 73
hypnozoite quantity inhibition [1, 5]: -15
schizont net growth area inhibition [2, 4]: 102
schizont net growth area inhibition [2, 5]: 102
hepatic nuclei reduction [3, 4]: 1%
hepatic nuclei reduction [3, 5]: -6%

Cc1cc(C)c2nc(N3CCC(C(=O)NCCCN4CCC(N5CCCCC5)CC4)CC3)sc2c1
hypnozoite quantity inhibition [1, 4]: -12
hypnozoite quantity inhibition [1, 5]: 26.5
schizont net growth area inhibition [2, 4]: 9.5
schizont net growth area inhibition [2, 5]: 44.9
hepatic nuclei reduction [3, 4]: 0%
hepatic nuclei reduction [3, 5]: 0%
